Drawing on ChEMBL document CHEMBL5674883, “The Heterochromatin Landscape in Migrating Cells and the Importance of H3K27me3 for Associated Transcriptome Alterations” (Cells, 2018), this text covers log2FC for two compounds.

By UniProt entry, the sequences of proteins in these tests, tags left out.
UniProt Q61188, whole entry: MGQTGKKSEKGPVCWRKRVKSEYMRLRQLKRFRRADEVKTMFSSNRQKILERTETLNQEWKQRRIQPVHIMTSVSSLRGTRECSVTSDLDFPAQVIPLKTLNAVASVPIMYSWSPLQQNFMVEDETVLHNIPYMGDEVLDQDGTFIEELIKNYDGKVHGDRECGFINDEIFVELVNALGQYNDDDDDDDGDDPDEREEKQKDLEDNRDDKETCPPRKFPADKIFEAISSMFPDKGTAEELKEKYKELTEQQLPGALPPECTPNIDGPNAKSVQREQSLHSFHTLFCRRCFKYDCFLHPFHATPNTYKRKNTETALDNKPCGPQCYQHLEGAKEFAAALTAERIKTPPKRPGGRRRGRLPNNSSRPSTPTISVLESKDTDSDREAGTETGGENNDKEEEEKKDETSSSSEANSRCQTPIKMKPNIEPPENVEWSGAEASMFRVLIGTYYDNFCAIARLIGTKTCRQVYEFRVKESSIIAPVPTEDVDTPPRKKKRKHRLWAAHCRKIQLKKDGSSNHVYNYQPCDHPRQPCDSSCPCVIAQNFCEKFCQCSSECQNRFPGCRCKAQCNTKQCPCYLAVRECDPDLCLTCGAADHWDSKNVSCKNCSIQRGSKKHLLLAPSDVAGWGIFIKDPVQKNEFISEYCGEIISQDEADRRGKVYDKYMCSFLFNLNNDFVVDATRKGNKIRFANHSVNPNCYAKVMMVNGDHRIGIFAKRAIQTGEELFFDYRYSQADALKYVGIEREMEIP

Format in all cases: cell-based
Assay [1] has as its target T1, RNA polymerase II (Mus musculus) (UniProt P08775+Q8CFI7+P97760+A0A3Q4L2S8+Q80UW8+P61219+P62488+Q923G2+P60898+O08740+Q63871+P62876). As to the kind of experiment: Inhibition of RNA polymerase II in mouse B16-F1 migrating cells assessed as fold change in Mt1-RNA stability at 0.1 mM measured by ChIP-seq analysis relative to control cells.
For assay [2], the target named is T1, RNA polymerase II (Mus musculus). Put plainly: Inhibition of RNA polymerase II in mouse B16-F1 migrating cells assessed as fold change in Nudt8-RNA stability at 0.1 mM measured by ChIP-seq analysis relative to control cells.
Assay [3] shares this target. Put plainly: Inhibition of RNA polymerase II in mouse B16-F1 migrating cells assessed as fold change in Coq8b-RNA stability at 0.1 mM measured by ChIP-seq analysis relative to control cells.
For assay [4] the target is unchanged. As to the kind of experiment: Inhibition of RNA polymerase II in mouse B16-F1 migrating cells assessed as fold change in Tmem42-RNA stability at 0.1 mM measured by ChIP-seq analysis relative to control cells.
Assay [5] shares this target. As to the kind of experiment: Inhibition of RNA polymerase II in mouse B16-F1 migrating cells assessed as fold change in Gm3839-RNA stability at 0.1 mM measured by ChIP-seq analysis relative to control cells.
The target is the same in assay [6]. Put plainly: Inhibition of RNA polymerase II in mouse B16-F1 migrating cells assessed as fold change in Fbxl5-RNA stability at 0.1 mM measured by ChIP-seq analysis relative to control cells.
Assay [7] shares this target. Put plainly: Inhibition of RNA polymerase II in mouse B16-F1 migrating cells assessed as fold change in Rrs1-RNA stability at 0.1 mM measured by ChIP-seq analysis relative to control cells.
For assay [8] the target is unchanged. As to the kind of experiment: Inhibition of RNA polymerase II in mouse B16-F1 migrating cells assessed as fold change in Cd9-RNA stability at 0.1 mM measured by ChIP-seq analysis relative to control cells.
Assay [9] has the same target. As to the kind of experiment: Inhibition of RNA polymerase II in mouse B16-F1 migrating cells assessed as fold change in Uba3-RNA stability at 0.1 mM measured by ChIP-seq analysis relative to control cells.
For assay [10] the target is unchanged. Put plainly: Inhibition of RNA polymerase II in mouse B16-F1 migrating cells assessed as fold change in Nln-RNA stability at 0.1 mM measured by ChIP-seq analysis relative to control cells.
Assay [11] shares this target. Put plainly: Inhibition of RNA polymerase II in mouse B16-F1 migrating cells assessed as fold change in Bub1-RNA stability at 0.1 mM measured by ChIP-seq analysis relative to control cells.
Assay [12] shares this target. Put plainly: Inhibition of RNA polymerase II in mouse B16-F1 migrating cells assessed as fold change in Dtl-RNA stability at 0.1 mM measured by ChIP-seq analysis relative to control cells.
Assay [13] shares this target. As to the kind of experiment: Inhibition of RNA polymerase II in mouse B16-F1 migrating cells assessed as fold change in Zranb2-RNA stability at 0.1 mM measured by ChIP-seq analysis relative to control cells.
Assay [14] shares this target. Put plainly: Inhibition of RNA polymerase II in mouse B16-F1 migrating cells assessed as fold change in Gabpa-RNA stability at 0.1 mM measured by ChIP-seq analysis relative to control cells.
The target is the same in assay [15]. As to the kind of experiment: Inhibition of RNA polymerase II in mouse B16-F1 migrating cells assessed as fold change in Thoc2-RNA stability at 0.1 mM measured by ChIP-seq analysis relative to control cells.
The target is the same in assay [16]. As to the kind of experiment: Inhibition of RNA polymerase II in mouse B16-F1 migrating cells assessed as fold change in Pdik1l-RNA stability at 0.1 mM measured by ChIP-seq analysis relative to control cells.
Assay [17] has the same target. Put plainly: Inhibition of RNA polymerase II in mouse B16-F1 migrating cells assessed as fold change in Sh3bgrl-RNA stability at 0.1 mM measured by ChIP-seq analysis relative to control cells.
For assay [18] the target is unchanged. Put plainly: Inhibition of RNA polymerase II in mouse B16-F1 migrating cells assessed as fold change in Ccnc-RNA stability at 0.1 mM measured by ChIP-seq analysis relative to control cells.
Assay [19] shares this target. As to the kind of experiment: Inhibition of RNA polymerase II in mouse B16-F1 migrating cells assessed as fold change in Nol8-RNA stability at 0.1 mM measured by ChIP-seq analysis relative to control cells.
For assay [20] the target is unchanged. Put plainly: Inhibition of RNA polymerase II in mouse B16-F1 migrating cells assessed as fold change in Zfp991-RNA stability at 0.1 mM measured by ChIP-seq analysis relative to control cells.
Assay [21] has the same target. As to the kind of experiment: Inhibition of RNA polymerase II in mouse B16-F1 migrating cells assessed as fold change in Med18-RNA stability at 0.1 mM measured by ChIP-seq analysis relative to control cells.
For assay [22], the target named is Histone-lysine N-methyltransferase EZH2 (Mus musculus) (UniProt Q61188). Put plainly: Inhibition of EZH2 in mouse B16-F1 migrating cells assessed as fold change in H3K27me3-independent regulated Edil3-mRNA expression at 3 uM measured by ChIP-seq analysis relative to control cells.
Assay [23] has the same target. Put plainly: Inhibition of EZH2 in mouse B16-F1 migrating cells assessed as fold change in H3K27me3-independent regulated Tagln2-mRNA expression at 3 uM measured by ChIP-seq analysis relative to control cells.
Assay [24] shares this target. As to the kind of experiment: Inhibition of EZH2 in mouse B16-F1 migrating cells assessed as fold change in H3K27me3-buffered regulated Gm44386-mRNA expression at 3 uM measured by ChIP-seq analysis relative to control cells.
Assay [25] shares this target. Put plainly: Inhibition of EZH2 in mouse B16-F1 migrating cells assessed as fold change in H3K27me3-buffered regulated Rlf-mRNA expression at 3 uM measured by ChIP-seq analysis relative to control cells.
Assay [26] has the same target. Put plainly: Inhibition of EZH2 in mouse B16-F1 migrating cells assessed as fold change in H3K27me3-buffered regulated Foxc1-mRNA expression at 3 uM measured by ChIP-seq analysis relative to control cells.
For assay [27] the target is unchanged. As to the kind of experiment: Inhibition of EZH2 in mouse B16-F1 migrating cells assessed as fold change in H3K27me3-buffered regulated Pigg-mRNA expression at 3 uM measured by ChIP-seq analysis relative to control cells.
Assay [28] has the same target. Put plainly: Inhibition of EZH2 in mouse B16-F1 migrating cells assessed as fold change in H3K27me3-buffered regulated Rcor2-mRNA expression at 3 uM measured by ChIP-seq analysis relative to control cells.
Assay [29] has the same target. Put plainly: Inhibition of EZH2 in mouse B16-F1 migrating cells assessed as fold change in H3K27me3-buffered regulated 2310030G06Rik-mRNA expression at 3 uM measured by ChIP-seq analysis relative to control cells.
Assay [30] has the same target. Put plainly: Inhibition of EZH2 in mouse B16-F1 migrating cells assessed as fold change in H3K27me3-buffered regulated Mamld1-mRNA expression at 3 uM measured by ChIP-seq analysis relative to control cells.

The source gives many values for each of these; only a part stands here.

Consider `OC[C@H]1O[C@@H](n2cnc3cc(Cl)c(Cl)cc32)[C@H](O)[C@@H]1O`, for which the log2FC is 0.72 in assay [1]; 0.58 in assay [2]; 0.57 in [3]; 0.56 in [4]; 0.52 in assay [5]; -0.44 in [6]. The log2FC in [7] is -0.45; in assay [8], -0.46; in assay [9], -0.48; in assay [10] it was -0.51; in assay [11], -0.55; in assay [12] it was -0.6. Besides, the log2FC is -0.66 in assay [13]; -0.73 in assay [14]; -0.78 in assay [15]; -0.82 in assay [16]; -0.84 in assay [17]; -0.91 in assay [18]. Besides, the values for the log2FC in assay [19], in assay [20] and in assay [21] were -1.07, -1.21 and -1.78, respectively.

Regarding `CCCc1cc(C)[nH]c(=O)c1CNC(=O)c1cc(-c2ccnc(N3CCN(C)CC3)c2)cc2c1cnn2C(C)C`, the log2FC in assay [22] is 0.52; in assay [23], 0.53; in assay [24], 0.68; in assay [25] it was -0.39; in assay [26] it was -0.42; in assay [27] it was -0.43. The log2FC in assay [28] is -0.6; in assay [29], -0.62; in [30], -0.9.
